Results are given in words; binding and its absence hold for the method and conditions named. Binding seen in cells or lysates may run through a third protein. A yes stands for co-enrichment or nearness to the bait. Other partners may have been found. For part of these data: Tags and fused reporters may be left off the sequences shown.
B1: arsenic resistance protein 2 (ARS2) (protein, UniProt Q9BXP5 1-876)
chain: MGDSDDEYDRRRRDKFRRERSDYDRSRERDERRRGDDWNDREWDRGRERRSRGEYRDYDRNRRERFSPPRHELSPPQKRMRRDWDEHSSDPYHSGYEMPYAGGGGGPTYGPPQPWGHPDVHIMQHHVLPIQARLGSIAEIDLGVPPPVMKTFKEFLLSLDDSVDETEAVKRYNDYKLDFRRQQMQDFFLAHKDEEWFRSKYHPDEVGKRRQEARGALQNRLRVFLSLMETGWFDNLLLDIDKADAIVKMLDAAVIKMEGGTENDLRILEQEEEEEQAGKPGEPSKKEEGRAGAGLGDGERKTNDKDEKKEDGKQAENDSSNDDKTKKSEGDGDKEEKKEDSEKEAKKSSKKRNRKHSGDDSFDEGSVSESESESESGQAEEEKEEAEEALKEKEKPKEEEWEKPKDAAGLECKPRPLHKTCSLFMRNIAPNISRAEIISLCKRYPGFMRVALSEPQPERRFFRRGWVTFDRSVNIKEICWNLQNIRLRECELSPGVNRDLTRRVRNINGITQHKQIVRNDIKLAAKLIHTLDDRTQLWASEPGTPPLPTSLPSQNPILKNITDYLIEEVSAEEEELLGSSGGAPPEEPPKEGNPAEINVERDEKLIKVLDKLLLYLRIVHSLDYYNTCEYPNEDEMPNRCGIIHVRGPMPPNRISHGEVLEWQKTFEEKLTPLLSVRESLSEEEAQKMGRKDPEQEVEKFVTSNTQELGKDKWLCPLSGKKFKGPEFVRKHIFNKHAEKIEEVKKEVAFFNNFLTDAKRPALPEIKPAQPPGPAQILPPGLTPGLPYPHQTPQGLMPYGQPRPPILGYGAGAVRPAVPTGGPPYPHAPYGAGRGNYDAFRGQGGYPGKPRNRMVRGDPRAIVEYRDLDAPDDVDFF
B2: interactor of little elongation complex ELL subunit 2 (ICE2) (protein, UniProt Q659A1 1-982)
chain: MSSKMVISEPGLNWDISPKNGLKTFFSRENYKDHSMAPSLKELRVLSNRRIGENLNASASSVENEPAVSSATQAKEKVKTTIGMVLLPKPRVPYPRFSRFSQREQRSYVDLLVKYAKIPANSKAVGINKNDYLQYLDMKKHVNEEVTEFLKFLQNSAKKCAQDYNMLSDDARLFTEKILRACIEQVKKYSEFYTLHEVTSLMGFFPFRVEMGLKLEKTLLALGSVKYVKTVFPSMPIKLQLSKDDIATIETSEQTAEAMHYDISKDPNAEKLVSRYHPQIALTSQSLFTLLNNHGPTYKEQWEIPVCIQVIPVAGSKPVKVIYINSPLPQKKMTMRERNQIFHEVPLKFMMSKNTSVPVSAVFMDKPEEFISEMDMSCEVNECRKIESLENLYLDFDDDVTELETFGVTTTKVSKSPSPASTSTVPNMTDAPTAPKAGTTTVAPSAPDISANSRSLSQILMEQLQKEKQLVTGMDGGPEECKNKDDQGFESCEKVSNSDKPLIQDSDLKTSDALQLENSQEIETSNKNDMTIDILHADGERPNVLENLDNSKEKTVGSEAAKTEDTVLCSSDTDEECLIIDTECKNNSDGKTAVVGSNLSSRPASPNSSSGQASVGNQTNTACSPEESCVLKKPIKRVYKKFDPVGEILKMQDELLKPISRKVPELPLMNLENSKQPSVSEQLSGPSDSSSWPKSGWPSAFQKPKGRLPYELQDYVEDTSEYLAPQEGNFVYKLFSLQDLLLLVRCSVQRIETRPRSKKRKKIRRQFPVYVLPKVEYQACYGVEALTESELCRLWTESLLHSNSSFYVGHIDAFTSKLFLLEEITSEELKEKLSALKISNLFNILQHILKKLSSLQEGSYLLSHAAEDSSLLIYKASDGKVTRTAYNLYKTHCGLPGVPSSLSVPWVPLDPSLLLPYHIHHGRIPCTFPPKSLDTTTQQKIGGTRMPTRSHRNPVSMETKSSCLPAQQVETEGVAPHKRKIT
B3: Symplekin (protein, UniProt Q92797 1-1274)
chain: MASGSGDSVTRRSVASQFFTQEEGPGIDGMTTSERVVDLLNQAALITNDSKITVLKQVQELIINKDPTLLDNFLDEIIAFQADKSIEVRKFVIGFIEEACKRDIELLLKLIANLNMLLRDENVNVVKKAILTMTQLYKVALQWMVKSRVISELQEACWDMVSAMAGDIILLLDSDNDGIRTHAIKFVEGLIVTLSPRMADSEIPRRQEHDISLDRIPRDHPYIQYNVLWEEGKAALEQLLKFMVHPAISSINLTTALGSLANIARQRPMFMSEVIQAYETLHANLPPTLAKSQVSSVRKNLKLHLLSVLKHPASLEFQAQITTLLVDLGTPQAEIARNMPSSKDTRKRPRDDSDSTLKKMKLEPNLGEDDEDKDLEPGPSGTSKASAQISGQSDTDITAEFLQPLLTPDNVANLVLISMVYLPEAMPASFQAIYTPVESAGTEAQIKHLARLMATQMTAAGLGPGVEQTKQCKEEPKEEKVVKTESVLIKRRLSAQGQAISVVGSLSSMSPLEEEAPQAKRRPEPIIPVTQPRLAGAGGRKKIFRLSDVLKPLTDAQVEAMKLGAVKRILRAEKAVACSGAAQVRIKILASLVTQFNSGLKAEVLSFILEDVRARLDLAFAWLYQEYNAYLAAGASGSLDKYEDCLIRLLSGLQEKPDQKDGIFTKVVLEAPLITESALEVVRKYCEDESRTYLGMSTLRDLIFKRPSRQFQYLHVLLDLSSHEKDKVRSQALLFIKRMYEKEQLREYVEKFALNYLQLLVHPNPPSVLFGADKDTEVAAPWTEETVKQCLYLYLALLPQNHKLIHELAAVYTEAIADIKRTVLRVIEQPIRGMGMNSPELLLLVENCPKGAETLVTRCLHSLTDKVPPSPELVKRVRDLYHKRLPDVRFLIPVLNGLEKKEVIQALPKLIKLNPIVVKEVFNRLLGTQHGEGNSALSPLNPGELLIALHNIDSVKCDMKSIIKATNLCFAERNVYTSEVLAVVMQQLMEQSPLPMLLMRTVIQSLTMYPRLGGFVMNILSRLIMKQVWKYPKVWEGFIKCCQRTKPQSFQVILQLPPQQLGAVFDKCPELREPLLAHVRSFTPHQQAHIPNSIMTILEASGKQEPEAKEAPAGPLEEDDLEPLTLAPAPAPRPPQDLIGLRLAQEKALKRQLEEEQKLKPGGVGAPSSSSPSPSPSARPGPPPSEEAMDFREEGPECETPGIFISMDDDSGLTEAALLDSSLEGPLPKETAAGGLTLKEERSPQTLAPVGEDAMKTPSPAAEDAREPEAKGNS
B4: nuclear protein co-activator of histone transcription (protein, UniProt Q14207 1-1427)
chain: MLLPSDVARLVLGYLQQENLISTCQTFILESSDLKEYAEHCTDEGFIPACLLSLFGKNLTTILNEYVAMKTKETSNNVPAIMSSLWKKLDHTLSQIRSMQSSPRFAGSQRARTRTGIAEIKRQRKLASQTAPASAELLTLPYLSGQFTTPPSTGTQVTRPSGQISDPSRSYFVVVNHSQSQDTVTTGEALNVIPGAQEKKAHASLMSPGRRKSESQRKSTTLSGPHSTIRNFQDPNAFAVEKQMVIENAREKILSNKSLQEKLAENINKFLTSDNNIAQVPKQTDNNPTEPETSIDEFLGLPSEIHMSEEAIQDILEQTESDPAFQALFDLFDYGKTKNNKNISQSISSQPMESNPSIVLADETNLAVKGSFETEESDGQSGQPAFCTSYQNDDPLNALKNSNNHDVLRQEDQENFSQISTSIQKKAFKTAVPTEQKCDIDITFESVPNLNDFNQRGNSNAECNPHCAELYTNQMSTETEMAIGIEKNSLSSNVPSESQLQPDQPDIPITSFVSLGCEANNENLILSGKSSQLLSQDTSLTGKPSKKSQFCENSNDTVKLKINFHGSKSSDSSEVHKSKIEINVLEPVMSQLSNCQDNSCLQSEILPVSVESSHLNVSGQVEIHLGDSLSSTKQPSNDSASVELNHTENEAQASKSENSQEPSSSVKEENTIFLSLGGNANCEKVALTPPEGTPVENSHSLPPESVCSSVGDSHPESQNTDDKPSSNNSAEIDASNIVSLKVIISDDPFVSSDTELTSAVSSINGENLPTIILSSPTKSPTKNAELVKCLSSEETVGAVVYAEVGDSASMEQSLLTFKSEDSAVNNTQNEDGIAFSANVTPCVSKDGGYIQLMPATSTAFGNSNNILIATCVTDPTALGTSVSQSNVVVLPGNSAPMTAQPLPPQLQTPPRSNSVFAVNQAVSPNFSQGSAIIIASPVQPVLQGMVGMIPVSVVGQNGNNFSTPPRQVLHMPLTAPVCNRSIPQFPVPPKSQKAQGLRNKPCIGKQVNNLVDSSGHSVGCHAQKTEVSDKSIATDLGKKSEETTVPFPEESIVPAAKPCHRRVLCFDSTTAPVANTQGPNHKMVSQNKERNAVSFPNLDSPNVSSTLKPPSNNAIKREKEKPPLPKILSKSESAISRHTTIRETQSEKKVSPTEIVLESFHKATANKENELCSDVERQKNPENSKLSIGQQNGGLRSEKSIASLQEMTKKQGTSSNNKNVLSVGTAVKDLKQEQTKSASSLITTEMLQDIQRHSSVSRLADSSDLPVPRTPGSGAGEKHKEEPIDIIKAPSSRRFSEDSSTSKVMVPPVTPDLPACSPASETGSENSVNMAAHTLMILSRAAISRTTSATPLKDNTQQFRASSRSTTKKRKIEELDERERNSRPSSKNLTNSSIPMKKKKIKKKKLPSSFPAGMDVDKFLLSLHYDE
B5: eleven-nineteen lysine-rich leukemia protein (ELL) (protein, UniProt P55199 1-621)
chain: MAALKEDRSYGLSCGRVSDGSKVSVFHVKLTDSALRAFESYRARQDSVSLRPSIRFQGSQGHISIPQPDCPAEARTFSFYLSNIGRDNPQGSFDCIQQYVSSHGEVHLDCLGSIQDKITVCATDDSYQKARQSMAQAEEETRSRSAIVIKAGGRYLGKKVQFRKPAPGATDAVPSRKRATPINLASAIRKSGASAVSGGSGVSQRPFRDRVLHLLALRPYRKAELLLRLQKDGLTQADKDALDGLLQQVANMSAKDGTCTLQDCMYKDVQKDWPGYSEGDQQLLKRVLVRKLCQPQSTGSLLGDPAASSPPGERGRSASPPQKRLQPPDFIDPLANKKPRISHFTQRAQPAVNGKLGVPNGREALLPTPGPPASTDTLSSSTHLPPRLEPPRAHDPLADVSNDLGHSGRDCEHGEAAAPAPTVRLGLPLLTDCAQPSRPHGSPSRSKPKKKSKKHKDKERAAEDKPRAQLPDCAPATHATPGAPADTPGLNGTCSVSSVPTSTSETPDYLLKYAAISSSEQRQSYKNDFNAEYSEYRDLHARIERITRRFTQLDAQLRQLSQGSEEYETTRGQILQEYRKIKKTNTNYSQEKHRCEYLHSKLAHIKRLIAEYDQRQLQAWP

Sequences of proteins named here, by UniProt entry; tags and fusion partners are left off.
UniProt Q9Y2F5: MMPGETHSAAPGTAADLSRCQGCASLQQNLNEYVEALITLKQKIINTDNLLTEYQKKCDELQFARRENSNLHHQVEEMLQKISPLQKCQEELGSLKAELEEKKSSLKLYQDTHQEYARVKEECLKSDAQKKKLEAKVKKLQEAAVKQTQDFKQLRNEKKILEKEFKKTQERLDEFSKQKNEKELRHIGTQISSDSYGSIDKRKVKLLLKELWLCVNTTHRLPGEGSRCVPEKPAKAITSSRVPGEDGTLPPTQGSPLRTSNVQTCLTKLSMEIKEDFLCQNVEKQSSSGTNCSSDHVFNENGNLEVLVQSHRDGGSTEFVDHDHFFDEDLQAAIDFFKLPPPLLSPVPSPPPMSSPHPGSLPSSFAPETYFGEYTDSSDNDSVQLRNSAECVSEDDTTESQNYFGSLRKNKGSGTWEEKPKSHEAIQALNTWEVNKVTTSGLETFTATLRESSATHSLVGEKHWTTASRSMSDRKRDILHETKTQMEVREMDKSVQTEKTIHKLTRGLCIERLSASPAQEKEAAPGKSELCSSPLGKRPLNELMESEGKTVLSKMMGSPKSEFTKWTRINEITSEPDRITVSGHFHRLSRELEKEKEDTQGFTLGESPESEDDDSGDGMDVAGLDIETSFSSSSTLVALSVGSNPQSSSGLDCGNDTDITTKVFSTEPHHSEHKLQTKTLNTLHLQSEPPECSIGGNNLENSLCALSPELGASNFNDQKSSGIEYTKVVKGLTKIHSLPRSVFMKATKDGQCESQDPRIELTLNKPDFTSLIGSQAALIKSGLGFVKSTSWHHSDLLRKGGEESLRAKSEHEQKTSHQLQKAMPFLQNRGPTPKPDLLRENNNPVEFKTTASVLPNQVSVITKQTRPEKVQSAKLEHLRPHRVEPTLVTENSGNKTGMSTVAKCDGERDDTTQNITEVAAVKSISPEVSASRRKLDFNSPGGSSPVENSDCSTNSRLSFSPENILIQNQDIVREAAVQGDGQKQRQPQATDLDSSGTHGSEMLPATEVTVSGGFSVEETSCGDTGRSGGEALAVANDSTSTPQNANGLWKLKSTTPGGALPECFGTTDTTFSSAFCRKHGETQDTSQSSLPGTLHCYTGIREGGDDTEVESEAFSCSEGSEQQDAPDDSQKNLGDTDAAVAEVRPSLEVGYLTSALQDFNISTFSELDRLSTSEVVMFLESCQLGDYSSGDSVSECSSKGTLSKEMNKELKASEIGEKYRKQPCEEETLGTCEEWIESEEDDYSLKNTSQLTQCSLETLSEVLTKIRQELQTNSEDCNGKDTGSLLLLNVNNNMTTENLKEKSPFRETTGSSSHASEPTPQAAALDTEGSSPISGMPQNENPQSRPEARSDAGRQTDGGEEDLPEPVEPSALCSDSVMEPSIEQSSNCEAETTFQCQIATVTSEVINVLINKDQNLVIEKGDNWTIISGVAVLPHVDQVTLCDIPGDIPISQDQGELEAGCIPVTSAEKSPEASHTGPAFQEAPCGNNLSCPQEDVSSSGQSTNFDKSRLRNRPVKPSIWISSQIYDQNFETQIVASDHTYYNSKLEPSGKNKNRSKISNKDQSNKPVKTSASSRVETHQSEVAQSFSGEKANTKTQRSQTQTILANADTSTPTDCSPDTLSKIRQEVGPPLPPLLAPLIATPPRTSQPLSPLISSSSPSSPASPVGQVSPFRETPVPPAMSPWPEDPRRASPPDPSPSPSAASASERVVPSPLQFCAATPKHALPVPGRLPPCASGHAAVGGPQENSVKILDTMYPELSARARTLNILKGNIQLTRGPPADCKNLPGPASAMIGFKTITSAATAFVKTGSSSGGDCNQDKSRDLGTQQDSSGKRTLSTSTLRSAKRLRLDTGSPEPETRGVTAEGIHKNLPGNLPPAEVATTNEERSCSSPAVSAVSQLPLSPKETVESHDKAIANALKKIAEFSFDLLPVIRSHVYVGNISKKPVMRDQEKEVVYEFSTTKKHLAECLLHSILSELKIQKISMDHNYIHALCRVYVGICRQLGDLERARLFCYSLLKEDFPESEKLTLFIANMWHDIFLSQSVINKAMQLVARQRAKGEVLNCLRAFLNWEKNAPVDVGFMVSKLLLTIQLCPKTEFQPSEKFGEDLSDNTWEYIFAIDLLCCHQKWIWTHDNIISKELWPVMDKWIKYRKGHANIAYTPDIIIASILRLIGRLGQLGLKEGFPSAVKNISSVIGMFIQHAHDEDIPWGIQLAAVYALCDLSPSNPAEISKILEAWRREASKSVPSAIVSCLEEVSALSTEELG
UniProt Q9NV88: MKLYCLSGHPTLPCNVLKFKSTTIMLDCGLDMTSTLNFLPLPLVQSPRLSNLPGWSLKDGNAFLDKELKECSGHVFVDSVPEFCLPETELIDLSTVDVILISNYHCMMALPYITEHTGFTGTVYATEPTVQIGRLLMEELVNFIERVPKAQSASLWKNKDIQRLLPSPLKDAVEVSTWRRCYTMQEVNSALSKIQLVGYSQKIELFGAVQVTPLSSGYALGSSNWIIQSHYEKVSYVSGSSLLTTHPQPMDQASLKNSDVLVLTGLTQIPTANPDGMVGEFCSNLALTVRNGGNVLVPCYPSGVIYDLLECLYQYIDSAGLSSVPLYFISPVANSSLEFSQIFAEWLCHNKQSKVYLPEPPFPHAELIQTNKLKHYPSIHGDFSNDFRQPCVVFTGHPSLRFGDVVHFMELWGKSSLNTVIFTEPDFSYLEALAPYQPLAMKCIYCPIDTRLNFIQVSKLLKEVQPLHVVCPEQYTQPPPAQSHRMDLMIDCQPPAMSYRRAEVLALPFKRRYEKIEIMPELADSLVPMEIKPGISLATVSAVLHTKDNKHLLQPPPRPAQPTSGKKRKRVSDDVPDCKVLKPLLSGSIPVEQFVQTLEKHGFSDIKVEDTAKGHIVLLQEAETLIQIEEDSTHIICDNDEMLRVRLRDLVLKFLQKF
UniProt Q9UKL3: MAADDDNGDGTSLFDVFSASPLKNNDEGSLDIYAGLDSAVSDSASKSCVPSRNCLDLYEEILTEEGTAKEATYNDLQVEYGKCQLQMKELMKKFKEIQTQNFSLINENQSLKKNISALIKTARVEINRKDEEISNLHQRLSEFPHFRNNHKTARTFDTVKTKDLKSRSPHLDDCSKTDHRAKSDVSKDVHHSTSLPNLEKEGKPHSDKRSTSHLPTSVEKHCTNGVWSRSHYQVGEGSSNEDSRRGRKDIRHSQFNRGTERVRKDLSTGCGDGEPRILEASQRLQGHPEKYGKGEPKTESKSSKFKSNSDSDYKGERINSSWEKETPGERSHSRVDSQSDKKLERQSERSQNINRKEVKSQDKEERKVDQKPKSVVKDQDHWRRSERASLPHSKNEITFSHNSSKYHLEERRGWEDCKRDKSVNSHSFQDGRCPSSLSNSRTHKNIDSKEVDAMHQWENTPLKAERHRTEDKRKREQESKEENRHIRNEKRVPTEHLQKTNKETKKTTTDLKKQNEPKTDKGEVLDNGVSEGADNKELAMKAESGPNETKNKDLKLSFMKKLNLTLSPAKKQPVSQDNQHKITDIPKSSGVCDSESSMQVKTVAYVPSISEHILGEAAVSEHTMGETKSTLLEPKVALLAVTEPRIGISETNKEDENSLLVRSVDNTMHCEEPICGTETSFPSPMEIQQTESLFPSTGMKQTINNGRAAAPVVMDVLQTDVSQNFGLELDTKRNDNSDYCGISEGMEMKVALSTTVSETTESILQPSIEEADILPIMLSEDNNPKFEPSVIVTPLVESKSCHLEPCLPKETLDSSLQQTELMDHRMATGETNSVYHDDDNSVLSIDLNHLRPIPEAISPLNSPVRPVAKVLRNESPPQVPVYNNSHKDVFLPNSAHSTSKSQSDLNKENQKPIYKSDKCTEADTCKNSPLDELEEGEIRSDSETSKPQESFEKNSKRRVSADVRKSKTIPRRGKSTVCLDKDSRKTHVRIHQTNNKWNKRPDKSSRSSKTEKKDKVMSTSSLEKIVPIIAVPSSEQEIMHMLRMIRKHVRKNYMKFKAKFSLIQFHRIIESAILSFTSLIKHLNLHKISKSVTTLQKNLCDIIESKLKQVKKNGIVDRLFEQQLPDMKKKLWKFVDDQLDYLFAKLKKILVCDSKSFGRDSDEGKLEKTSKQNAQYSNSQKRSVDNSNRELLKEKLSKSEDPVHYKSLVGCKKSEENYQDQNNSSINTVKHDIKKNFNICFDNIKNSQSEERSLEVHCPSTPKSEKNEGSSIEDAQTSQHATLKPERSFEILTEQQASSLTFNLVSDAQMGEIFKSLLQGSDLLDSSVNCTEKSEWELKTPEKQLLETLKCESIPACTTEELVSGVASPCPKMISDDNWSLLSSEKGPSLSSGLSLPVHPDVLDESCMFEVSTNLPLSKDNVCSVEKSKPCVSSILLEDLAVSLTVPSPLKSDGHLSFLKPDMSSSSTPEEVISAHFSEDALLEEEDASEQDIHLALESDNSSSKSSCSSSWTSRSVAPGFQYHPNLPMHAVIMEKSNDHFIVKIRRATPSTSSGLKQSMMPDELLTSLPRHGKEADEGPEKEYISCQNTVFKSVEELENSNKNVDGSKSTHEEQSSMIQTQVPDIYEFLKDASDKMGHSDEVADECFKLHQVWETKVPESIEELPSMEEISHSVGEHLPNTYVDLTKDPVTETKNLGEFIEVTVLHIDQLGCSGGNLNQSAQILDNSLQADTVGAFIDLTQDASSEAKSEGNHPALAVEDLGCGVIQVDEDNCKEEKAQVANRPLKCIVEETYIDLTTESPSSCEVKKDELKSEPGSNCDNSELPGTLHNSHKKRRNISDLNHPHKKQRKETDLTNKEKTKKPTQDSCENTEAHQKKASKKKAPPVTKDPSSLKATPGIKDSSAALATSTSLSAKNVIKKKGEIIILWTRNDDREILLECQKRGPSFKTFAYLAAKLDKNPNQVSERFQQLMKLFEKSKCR
UniProt Q9NVH2: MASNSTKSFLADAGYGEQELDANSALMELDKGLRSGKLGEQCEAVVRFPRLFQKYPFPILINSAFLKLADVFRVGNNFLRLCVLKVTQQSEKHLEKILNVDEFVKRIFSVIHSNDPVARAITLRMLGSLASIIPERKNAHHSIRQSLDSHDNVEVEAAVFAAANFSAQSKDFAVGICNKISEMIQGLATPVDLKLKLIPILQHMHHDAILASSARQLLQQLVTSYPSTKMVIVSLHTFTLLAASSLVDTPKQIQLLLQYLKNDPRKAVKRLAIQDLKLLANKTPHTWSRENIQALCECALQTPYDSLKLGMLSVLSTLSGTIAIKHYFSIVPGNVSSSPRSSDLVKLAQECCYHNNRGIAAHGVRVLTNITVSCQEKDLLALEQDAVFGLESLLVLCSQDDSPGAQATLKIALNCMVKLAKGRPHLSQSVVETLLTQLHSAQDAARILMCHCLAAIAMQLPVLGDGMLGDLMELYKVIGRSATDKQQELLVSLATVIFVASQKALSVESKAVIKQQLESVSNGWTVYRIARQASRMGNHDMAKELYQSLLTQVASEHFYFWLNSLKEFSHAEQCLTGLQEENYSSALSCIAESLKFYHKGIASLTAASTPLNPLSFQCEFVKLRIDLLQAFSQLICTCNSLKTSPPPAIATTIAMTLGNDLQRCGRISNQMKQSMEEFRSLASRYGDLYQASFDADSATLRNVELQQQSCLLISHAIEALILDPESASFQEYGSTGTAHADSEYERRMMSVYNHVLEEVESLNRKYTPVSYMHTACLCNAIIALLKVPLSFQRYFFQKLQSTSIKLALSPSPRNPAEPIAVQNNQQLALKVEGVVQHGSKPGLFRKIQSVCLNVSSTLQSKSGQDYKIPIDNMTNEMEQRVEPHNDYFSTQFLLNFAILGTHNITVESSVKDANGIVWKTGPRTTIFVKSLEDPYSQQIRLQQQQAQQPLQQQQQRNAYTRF
UniProt Q96CJ1: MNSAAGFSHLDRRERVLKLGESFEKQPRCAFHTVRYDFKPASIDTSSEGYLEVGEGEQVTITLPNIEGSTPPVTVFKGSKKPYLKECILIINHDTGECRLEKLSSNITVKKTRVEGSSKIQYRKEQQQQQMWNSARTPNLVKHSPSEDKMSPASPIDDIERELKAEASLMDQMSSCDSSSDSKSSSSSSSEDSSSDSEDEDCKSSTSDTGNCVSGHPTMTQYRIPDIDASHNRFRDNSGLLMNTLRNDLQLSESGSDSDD

target: FLAG-tagged ICE1 (interactor of little elongation complex ELL subunit 1) (UniProt Q9Y2F5); assay: affinity purification with mass spectrometry; anti-FLAG agarose purification from nuclear extracts (prepared with Benzonase) of 293FRT cells stably expressing FLAG-ICE1, washes with 0.15 M NaCl, 0.1% Triton X-100, elution with FLAG peptide; MudPIT and gel-based mass spectrometry; parental cells as control

Row | binding | Molecule
1 | binds | B1
2 | binds | B2
3 | binds | B3
4 | binds | B4
5 | binds | B5

target: FLAG-tagged ICE1 (interactor of little elongation complex ELL subunit 1) (UniProt Q9Y2F5); assay: as above; remark: another data set of the same source

Row | binding | Molecule
6 | binds | INTS4 (from UniProt Q96HW7 1-963)
7 | binds | INTS9 (from UniProt Q9NV88 1-658)
8 | binds | INTS6 (from UniProt Q9UL03 1-887)
9 | binds | FLICE-associated huge protein (FLASH) (from UniProt Q9UKL3 1-1982)
10 | binds | INTS7 (from UniProt Q9NVH2 1-962)
11 | binds | ELL2 (from UniProt O00472 1-640)
12 | binds | ELL-associated factor 2 (EAF2) (from UniProt Q96CJ1 1-260)
13 | binds | ELL-associated factor 1 (EAF1) (from UniProt Q96JC9 1-268)
14 | binds | cap-binding protein 80 (CBP80) (from UniProt Q09161 1-790)
15 | binds | coilin (from UniProt P38432 1-576)

From paper PMC7044329
